About 6,100 (1.1%) of roughly 580,000 compounds were called active. The inconclusive results got no clear call from the source; some entries with a clear call stand among them for comparison. The call rests on the fitted dose curve; in most records, active means well fitted inhibition curve with a large enough effect; inconclusive means small, poorly fitted or top-dose-only effect, or another doubt; inactive means no such curve, though single readings can be large or run the other way. Where the call is inconclusive, the potency comes from a doubtful curve fit.
Biological target: Polyunsaturated fatty acid lipoxygenase ALOX12 (Homo sapiens) (UniProt P18054)
Experiment: Primary qHTS assay for inhibitors of human arachidonate 12S-lipoxygenase (ALOX12): Round 2
Conditions: purified 12hLO, xylenol orange hydroperoxide absorbance; activity change, negative = inhibition: at 108 µM (top of the series) unless noted
In short: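 Purified human 12hLO at 150 nM in 25 mM Hepes, 0.01% Triton X-100, pH 7.0, preincubated 15 min at room temperature with compound. Reaction started with 40 uM arachidonic acid, 30 min at room temperature. Hydroperoxide measured by Fe-xylenol orange, 573/405 nm absorbance ratio.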
On the % scale 0 is the no-effect control and ±100 the full control effect; potency means the concentration at half of the fitted maximal effect.

The chains behind the UniProt entries cited, without tags or fusion partners. Where a name states a change or a piece, a line headed by the entry shows the natural chain unless it says otherwise.
UniProt P18054: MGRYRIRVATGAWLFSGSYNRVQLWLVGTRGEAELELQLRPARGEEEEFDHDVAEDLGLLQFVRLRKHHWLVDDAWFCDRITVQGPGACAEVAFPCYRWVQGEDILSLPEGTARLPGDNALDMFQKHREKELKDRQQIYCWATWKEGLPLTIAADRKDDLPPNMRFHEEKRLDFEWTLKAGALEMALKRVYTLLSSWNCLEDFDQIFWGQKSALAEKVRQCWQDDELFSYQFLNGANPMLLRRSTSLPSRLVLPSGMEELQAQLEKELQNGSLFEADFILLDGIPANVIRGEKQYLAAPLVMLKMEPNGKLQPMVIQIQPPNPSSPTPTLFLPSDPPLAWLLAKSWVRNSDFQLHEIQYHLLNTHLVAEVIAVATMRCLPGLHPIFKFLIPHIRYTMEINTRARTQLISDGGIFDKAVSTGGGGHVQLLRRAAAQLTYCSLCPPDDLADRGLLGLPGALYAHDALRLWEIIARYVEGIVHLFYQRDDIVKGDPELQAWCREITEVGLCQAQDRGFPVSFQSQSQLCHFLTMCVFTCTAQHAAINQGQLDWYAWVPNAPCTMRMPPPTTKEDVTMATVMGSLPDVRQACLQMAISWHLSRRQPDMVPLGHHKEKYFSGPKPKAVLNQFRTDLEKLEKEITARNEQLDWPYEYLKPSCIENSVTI

Row | SMILES | Potency | activity change, negative = inhibition
1 | O=C(Oc1ccc2c(c1)O/C(=C\c1cccs1)C2=O)c1ccco1 | inconclusive: 44.7 µM [inhibitor, partial curve, poor fit] | 
2 | Cc1cc(S(=O)(=O)NC2CCCCC2)ccc1OCC(=O)NCc1ccccn1 | inconclusive: 12.6 µM [inhibitor, partial curve, poor fit] | 
3 | Cc1ccc(OCc2nnc(SC(C)C(=O)O)n2Cc2ccccc2)cc1 (stereo not drawn) | inconclusive: 100 µM [inhibitor, single point] | 
4 | Cc1cc(Nc2ccc3c(c2)OCCO3)n2ncnc2n1 | inconclusive: 28.2 µM [inhibitor, partial curve, poor fit] | 
5 | CN(C)CCCN(C(=O)c1ccc2c(c1)CCCC2)c1nc2ccc(Cl)cc2s1 | inconclusive: 44.7 µM [inhibitor, partial curve] | 
6 | FC(F)(F)c1ccc(Cl)c(N/N=C/c2ccc(N3CCOCC3)s2)c1 | inconclusive: 56.2 µM [inhibitor, partial curve, poor fit] | 
7 | CN1CCN(/C=N/c2c(C#N)cnn2C)CC1 |  | inactive: -0.974%
8 | CN(C)c1ccc(NC(=O)Cn2c(SCc3ccc(F)cc3)nc3ccncc32)cc1 | inconclusive: 126 µM [inhibitor, partial curve, poor fit] | 
9 | COc1ccc(OC)c(/C=C2\Oc3cc(OS(=O)(=O)c4ccc(C)cc4)ccc3C2=O)c1 | inconclusive: 0.447 µM [inhibitor, full curve, poor fit] | 
10 | COCCCNc1cc(-c2ccc(Cl)cc2)nc2c(C)noc12 | inconclusive: 44.7 µM [inhibitor, partial curve] | 
11 | CCCN(C(=O)COC(=O)Cn1c(=O)oc2ccccc21)c1c(N)n(Cc2ccccc2)c(=O)[nH]c1=O | inconclusive: 44.7 µM [inhibitor, single point] | 
12 | COc1ccc(/C=N/NC(=S)Nc2ccccc2)cc1COc1ccccc1F | inconclusive: 89.1 µM [inhibitor, partial curve, poor fit] | 
13 | O=C(Cc1coc2cc3c(cc12)CCC3)NCC1(N2CCCCC2)CCCCC1 | inconclusive: 44.7 µM [inhibitor, partial curve, poor fit] | 
14 | CCOC(=O)c1c(CC(C)C)csc1NC(=O)CCl | inconclusive: 44.7 µM [inhibitor, partial curve, poor fit] | 
15 | COc1ccc2cc(/C=C/C(=O)c3cccs3)ccc2c1 |  | inactive: 34.3%
16 | CCC(CC)NCC(O)COc1ccc(Br)cc1 (stereo not drawn) | inconclusive: 0.891 µM [inhibitor, full curve] | 
17 | CC1CCCCN1c1ccc(C(N)=O)cc1NC(=O)c1cccc(-n2cnnc2)c1 (stereo not drawn) |  | inactive: 12.1%
18 | Cc1ccncc1C(=O)N1CCCC(c2nc(-c3cccnc3)no2)CCNC(=O)CC1 (stereo not drawn) |  | inactive: 7.09%
19 | Cn1c(-c2cnn(-c3ccccc3)c2-n2cccc2)n[nH]c1=S | inconclusive: 44.7 µM [inhibitor, partial curve, poor fit] | 
20 | Cc1cnc(CNc2cc(-c3ccc(N(C)C)cc3)ncn2)cn1 | inconclusive: 1.78 µM [inhibitor, full curve, poor fit] | 
21 | Cc1oc2cc3oc(=O)c(CCC(=O)NCCc4ccccc4F)c(C)c3cc2c1C |  | inactive: -9.02%

Row | SMILES | Potency | activity change, negative = inhibition
22 | Clc1ccc(N/N=C/c2cccc(/C=N/Nc3ccc(Cl)c(Cl)c3)c2)cc1Cl | active: 0.708 µM | 
23 | COc1ccc(-c2nc3c(c(SCc4ccc(Br)cc4)n2)Cc2c(CO)cnc(C)c2O3)cc1 | inconclusive: 0.316 µM [inhibitor, full curve, poor fit] | 
24 | CC(Oc1ccccc1)C(=O)OCc1cc(=O)n2ccsc2n1 (stereo not drawn) | inconclusive: 112 µM [inhibitor, single point] | 
25 | Cc1nn(CCc2nn[nH]n2)c2nc(-c3ccccc3)cc(C(F)(F)F)c12 |  | inactive: -0.0561%
26 | CC(OC(=O)c1nn(C)c(=O)c2ccccc12)C(=O)c1ccc(C(C)(C)C)cc1 (stereo not drawn) |  | inactive: 32.5%
27 | Cc1ccc(-n2c(C3CCN(C(=O)COc4ccc(F)cc4)CC3)n[nH]c2=O)cc1 | active: 44.7 µM | 
28 | CC1=NN(C(N)=S)C(=O)C1N=Nc1cccc(Cl)c1 (stereo not drawn) | inconclusive: 31.6 µM [inhibitor, single point] | 
29 | CCCOC(=O)c1ccc(OC(=O)CCCOc2ccc(Cl)cc2Cl)cc1 | inconclusive: 3.55 µM [inhibitor, full curve] | 
30 | O=C(CSc1nnc(-c2cccc(Cl)c2)o1)Nc1ccc2c(c1)OC1(CCCCC1)O2 | inconclusive: 39.8 µM [inhibitor, partial curve, poor fit] | 
31 | CC(=O)c1cccc(OCc2cc(C(=O)N3C[C@H]4CC[C@H]3C4)no2)c1 |  | inactive: 3.14%
32 | COc1cccc(OC)c1C(=O)Oc1ccc2c(c1)O/C(=C\c1ccc(C(C)(C)C)cc1)C2=O | inconclusive: 35.5 µM [inhibitor, partial curve, poor fit] | 
33 | Cc1ccc([C@H]2C(C(=O)O)=CC[C@@H](c3ccc(Cl)c(Cl)c3)N2S(=O)(=O)c2ccc(C)cc2)cc1 | inconclusive: 44.7 µM [inhibitor, partial curve, poor fit] | 
34 | O=C(CN1C(=O)COc2ccccc21)Nc1cc(Cl)ccc1Oc1ccccc1 | inconclusive: 56.2 µM [inhibitor, partial curve, poor fit] | 
35 | O=C(CCC1CCCC1)Nc1nc2ccc(F)cc2s1 |  | inactive: -2.09%
36 | COc1cccc(CC(=O)N2CCOCCNC(=O)[C@@H]3CCC[C@@H]32)c1 |  | inactive: 57.5%
37 | Cc1ccccc1OCC(=O)OCC(=O)N1CCCc2ccccc21 | inconclusive: 126 µM [inhibitor, single point] | 
38 | COc1ccc(OC)c(NC(=O)CCN2CCN(Cc3ccccc3)CC2)c1 | inconclusive: 3.55 µM [inhibitor, full curve, poor fit] | 
39 | COCc1nc2nc(-c3ccccc3)c(Nc3ccc(F)c(OC)c3)cc2n1C | inconclusive: 6.31 µM [inhibitor, full curve] | 
40 | O=C(NCC1CCCO1)C(C(=O)c1ccc(F)cc1)n1ccccc1=O (stereo not drawn) | inconclusive: 0.0708 µM [inhibitor, full curve, poor fit] | 
41 | [O-]/C(=C(\C(=S)Nc1ccc(Cl)cc1)[n+]1ccccc1)c1ccc(OC(F)F)cc1 | inconclusive: 50.1 µM [inhibitor, partial curve, poor fit] | 
42 | CC(C)[C@@H](C(=O)Nc1ccc(N(C)C)cc1)n1nnc2ccccc2c1=O | inconclusive: 3.55 µM [inhibitor, full curve, poor fit] | 

Row | SMILES | Potency | activity change, negative = inhibition
43 | COc1ccc(-c2nc3sc(CCNC(=O)C(=O)Nc4ccc(OC)c(OC)c4)c(C)n3n2)cc1 |  | inactive: -6.58%
44 | O=C1CCCN1CCCNC(=S)Nc1ccc(Br)cc1Cl | inconclusive: 44.7 µM [inhibitor, partial curve, poor fit] | 
45 | Cc1cc(C)n(-c2nnc3c4ccccc4n(C)c3n2)n1 | inconclusive: 0.501 µM [inhibitor, full curve, poor fit] | 
46 | Cn1c(=O)c2c(nc(N3CCN(c4ccc([N+](=O)[O-])cc4)CC3)n2C)n(C)c1=O |  | inactive: -20%
47 | CN1CCN(C(=O)c2ccc3c(c2)N(Cc2ccc(C(F)(F)F)cc2)C(=O)c2ccccc2S3)CC1 | inconclusive: 89.1 µM [inhibitor, partial curve, poor fit] | 
48 | Cc1cc2sc(NC(=O)c3ccco3)nc2cc1Cl | inconclusive: 112 µM [inhibitor, single point] | 
49 | Cc1ccc(-n2nc(C)cc2NC(=O)c2ccc(C)s2)cc1 |  | inactive: -15.7%
50 | Cc1cc(Nc2cccc([N+](=O)[O-])c2)c2cc(Cl)ccc2n1 | inconclusive: 28.2 µM [inhibitor, partial curve, poor fit] | 
51 | CN(C(=O)CSc1nnc(-c2cccs2)n1N)c1ccccc1 | inconclusive: 17.8 µM [inhibitor, partial curve, poor fit] | 
52 | O=C(NCC1CC1)c1cccc(OC2CN(Cc3ccc(F)cc3F)C2)c1 | active: 25.1 µM | 
53 | Fc1cccc(Cl)c1/C=N/Nc1c(Cl)cc(Cl)cc1Cl | inconclusive: 3.16 µM [inhibitor, full curve, poor fit] | 
54 | CSc1ccc(CN2CCCCCC2)cc1 | inconclusive: 1 µM [inhibitor, full curve] | 
55 | CCOC(=O)[C@H]1[C@H]2COc3ccc(Cl)cc3[C@@H]2N2C(=O)CN(Cc3ccc(Cl)cc3)C(=O)[C@@]12C |  | inactive: 3.4%
56 | CCOc1ccc(C(=O)NC(=S)NC2CCCC2)cc1[N+](=O)[O-] | inconclusive: 17.8 µM [inhibitor, full curve, poor fit] | 
57 | CCc1cccc(NC(=O)CN2C(=O)NC(c3ccc(C)cc3)C3=C2COC3=O)c1 (stereo not drawn) | inconclusive: 35.5 µM [inhibitor, full curve] | 
58 | Cc1[nH]c2ccc(-c3n[nH]c(=S)n3Cc3ccccc3)cc2c1C | inconclusive: 39.8 µM [inhibitor, partial curve, poor fit] | 
59 | CCc1cc(=O)oc2cc(C)cc(OCC(=O)O)c12 | inconclusive: 39.8 µM [inhibitor, partial curve, poor fit] | 
60 | Cc1ccc(S(=O)(=O)n2nc(OC(=O)c3ccccc3F)cc2N)cc1 |  | inactive: -26.1%
61 | O=C(CCN1C(=O)/C(=C/c2ccccc2F)SC1=S)N[C@@H](CO)Cc1ccccc1 | inconclusive: 50.1 µM [inhibitor, partial curve, poor fit] | 
62 | COc1cc(C(=O)NNC(=S)NC(=O)c2ccc(Cl)cc2)cc(OC)c1OC | inconclusive: 35.5 µM [inhibitor, partial curve] | 
63 | CC1=C(C(=O)c2ccccc2)C(c2cn(-c3ccccc3)nc2-c2ccc(Cl)cc2)NC(=S)N1 (stereo not drawn) | inconclusive: 10 µM [inhibitor, full curve, poor fit] | 

Whole records, looked up by structure.
CCOC(=O)[C@H]1[C@H]2COc3ccc(Cl)cc3[C@@H]2N2C(=O)CN(Cc3ccc(Cl)cc3)C(=O)[C@@]12C as listed: activity change, negative = inhibition: inactive: 3.4%
CCc1cc(=O)oc2cc(C)cc(OCC(=O)O)c12 as listed: Potency: inconclusive: 39.8 µM [inhibitor, partial curve, poor fit]
Fc1cccc(Cl)c1/C=N/Nc1c(Cl)cc(Cl)cc1Cl as listed: Potency: inconclusive: 3.16 µM [inhibitor, full curve, poor fit]
CSc1ccc(CN2CCCCCC2)cc1 as listed: Potency: inconclusive: 1 µM [inhibitor, full curve]
